# Data as given in PubChem BioAssay AID1347426 (Functional Genomics Laboratory (NCATS/FGL), 2020).
# Out of some 31,000 sequences screened, about 1,400 (4.5%) were called active.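 How the source made its calls: active means median seed-adjusted z-score above 1 or below -1; inactive means the rest.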 Some of the results follow.
# Test: Novel Modifiers of Survival Motor Neuron (SMN) Protein: Gene Identification via Genome-wide siRNA Screen;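 further: luminescence tracks full-length SMN protein made from the SMN2 reporter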
# Details: HEK293T SMN2-luciferase reporter, siRNA knockdown, 72 h; actives lie on both sides
# Method in brief: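 HEK293T cells stably expressing an SMN2 splicing/cDNA-luciferase reporter were reverse-transfected with a druggable-genome siRNA library and read by luminescence at 72 hours; hits defined by MAD score above 1.0 or below -1.0.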
row,Sequence,median seed-adjusted z-score
1,GUUUUGAGGUCAACAAGAATT against ZMAT2,inactive: 0.104
2,ACACGAACCCUAUACCGCUTT against NOBOX,inactive: -0.426
3,CGUAGUAUAUUAACAAGUATT against MKKS,active: 1.03
4,AGAAAACCCUAAACCACAATT against YBX1,inactive: -0.0115
5,CCAUCUAUGAGGCGGGAAATT against MFI2,inactive: 0.365
6,AGCUGUCCGUUUGAUUUUUTT against CCR1,inactive: 0
7,GGGACUCAGAAAUCACGCATT against STK19,inactive: -0.188
8,GCAUAGGCCCAGUAACUUATT against SLC25A34,inactive: -0.256
9,CCAGGAGGAAUGGACUUUATT against ZNF778,inactive: 0.0459
10,CUACUAAUCCUGACUAUUATT against TBC1D8B,inactive: -0.985
11,GGAUUGAGGAGAAACGUAATT against RELA,inactive: -0.646
12,GGAAUAUGGGAAUACAUGUTT against ZNF529,inactive: -0.243
13,AGAAAUCUUUUAGCCUUGATT against PINX1,inactive: 0.11
14,GGACAGACCAAGAGAAUAATT against PPP1R16B,inactive: -0.892
15,GGUCCAAAAUGUACUUAGATT against RGS8,inactive: 0.739
16,CGACCAUCAUGGAAAACAUTT against ABCB8,inactive: -0.558
17,CAUUGGAAAGUGCGAGUUATT against HUWE1,inactive: 0.734
18,CCAUUAGAAGAUACGCAGATT against DIS3,inactive: 0.266
19,GGCAGAAGUUGGUUGACAATT against DALRD3,inactive: 0.338
20,GGACCAGAGAGACUUCAUUTT against ASTL,inactive: 0.722
21,CAAAGAGACUGUGAGGAAATT against MAN2C1,inactive: -0.489
22,GGUUUAUACAACAACCAGATT against NOD1,inactive: 0.092

row,Sequence,median seed-adjusted z-score
1,CAUGGUCCAUUAUUCGUGATT against ATP6V1A,inactive: -0.0106
2,CACUAUAUGCUAUCCAGAATT against GNAI1,inactive: -0.233
3,CCAGAAUGGUUCAAUGUAUTT against PCBD2,inactive: -0.0549
4,CCUGAAAUUCGGAUAGUGATT against DLX2,inactive: -0.527
5,GCCUUCUCCUCUCAUAACATT against ZNF683,inactive: -0.452
6,AAGCAGUGCUGAUCCUUCATT against LAMB3,inactive: -0.0106
7,GAUAGAUCGUUUUAAGAGATT against MST4,inactive: 0.343
8,GCACAGAGUUUAAUGAGCATT against VSNL1,inactive: 0.0569
9,GAACCAUACUCGCAAUACATT against NR1H4,inactive: -0.056
10,CGUAGAGUCCGCCAAGAAATT against LBX1,inactive: -0.36
11,GGAAUGAUCUGACUAACUUTT against PECI,inactive: -0.0254
12,GAUUUAUCCCUGUACUUGATT against ERAP1,inactive: -0.0666
13,GCAUCUGAAUUUGGAUUAATT against CTH,inactive: 0.629
14,CAUUCGAAGAUAUAUGGUATT against ZNF491,inactive: 0.0642
15,GCAUUCUAUAGAUUGACAATT against MGST1,inactive: -0.0144
16,GGUACAGCCUCAAAGCGUATT against ABCG4,inactive: -0.439
17,GCAAGAAACUCCACCCUUUTT against RGS3,inactive: 0.065
18,UGAUCAAAGAGACAAUGGATT against DNAL4,inactive: 0
19,CUCCUACGUUUGAAAAACATT against ACPL2,inactive: 0.0392
20,GAGGCAUCACAGACACUAATT against B3GNT5,inactive: -0.452
21,GCAUCACCCAACAAGUACATT against PZP,inactive: -0.878
22,CACUUUCAACGGGCAAAGATT against NMI,inactive: 0.982

# Pulled one by one from the list above, 4 records:
row,Sequence,median seed-adjusted z-score
12,GAUUUAUCCCUGUACUUGATT against ERAP1,inactive: -0.0666
10,CGUAGAGUCCGCCAAGAAATT against LBX1,inactive: -0.36
22,CACUUUCAACGGGCAAAGATT against NMI,inactive: 0.982
4,CCUGAAAUUCGGAUAGUGATT against DLX2,inactive: -0.527

# Further records follow.

row,Sequence,median seed-adjusted z-score
1,AGAUGUACAACGACCCAAATT against AGBL4,inactive: 0.487
2,CGGGAGCAGUUCUAUAAGATT against UBE2G2,inactive: -0.043
3,GACCCAACCAAAACCCGAATT against KRT12,inactive: -0.0457
4,GCAGAUCCAUCAACUACGATT against UBR4,inactive: 0.602
5,GGAAGUAGCUAGUAAAGCATT against USP38,inactive: 0.216
6,GCAGUGGACGGCAAACUUATT against HOXC8,inactive: -0.0285
7,GUUACGACCUGGAAGAUUATT against SPATA5L1,inactive: 0.252
8,GUCUACCCAUGGAUGAAAATT against HOXC4,inactive: -0.0114
9,CAGACGAAAUUUUGGGAUUTT against FUT11,inactive: -0.15
10,CUAUCACCGGAUUAACGAATT against ACOX1,inactive: -0.897
11,GCACUCGAGUAAUUAGCAATT against DOCK10,inactive: -0.201
12,CCUAGGUUCUGCAACUACATT against ZFP106,inactive: 0.286
13,GAAAGUGCUCGGUGCCUUUTT against HBB,inactive: -0.151
14,GCGGGAGAAGCUUACCUUUTT against DPP3,inactive: -0.261
15,GGGACAGUGGAGACGAAAATT against PALLD,inactive: -0.307
16,GGAUGUCUGUUAUGACACUTT against PLA2G12B,inactive: -0.162
17,CAGUUUACCUUCAAUCAGATT against NLRP11,inactive: 0.181
18,GCUAUGGACUAUUCGAAUATT against IFIT3,inactive: -0.437
19,GCUUGUCUUUCAACCCGAUTT against PARP4,inactive: -0.226
20,CCUGGGAUUUGGUUCGUUUTT against SCTR,inactive: -0.352
21,GCCGAUCAAAGUACUCAGATT against RNF133,inactive: 0
22,GUAAGUCCAUAUCAAGACATT against SKIL,inactive: -0.868

row,Sequence,median seed-adjusted z-score
1,CAAAAUCGAGUGAUCUAUATT against ESCO2,inactive: 0
2,GCAUCUUGGUGAAACGUGATT against EIF4A3,inactive: 0.126
3,GCAGGAACCACAUUAUGGATT against RBX1,inactive: -0.000499
4,AGCUCCAUAUAACAAGGCATT against PLA2G1B,inactive: -0.411
5,CAUCCAACAUAGAAGAGUUTT against CACNA1I,inactive: 0.346
6,GGGAUGGGUUCGUACCUUUTT against CLDN6,inactive: -0.281
7,CGGUGACCGUUCAACCAUATT against ZNF391,inactive: 0.056
8,UCAUGAACAUUGUCAAUGATT against ADAMTS2,inactive: -0.338
9,UCCUCUAACUCACUGCCUATT against WISP2,inactive: -0.0731
10,CCAGAAUGCAGGGAAGUAATT against APOH,inactive: 0.0283
11,CCACGAAAGUAGCAAUCAATT against YES1,inactive: -0.508
12,CAUCCUUCCUGCUAUCCUATT against SLC2A3,inactive: -0.277
13,CCACAUUGCUGUACGCACATT against DALRD3,inactive: 0.338
14,AGAAAUUCAUCUCAGAUAUTT against TAF10,inactive: -0.587
15,GCUGUGGACUCCAAACAGATT against DAB2IP,inactive: 0.505
16,ACGGCAAACUCAUCACUAUTT against ACTL7B,inactive: 0.572
17,GUCUGUUCGUGGGCCGAAATT against STUB1,inactive: 0.202
18,GCACCUGAAUGACACGCAATT against HOXD1,inactive: 0.144
19,GAAACUAGGCCUAACUGAATT against CASQ1,inactive: -0.0307
20,GAGUGAUACUCAUAUCUCUTT against VN1R1,inactive: 0.531
21,GCCUGGACUUCUUCGAGAATT against CSNK1G2,inactive: 0.511
22,GCUCUAAACCAGAACGGGATT against ARAP3,inactive: -0.00876

# Some of the entries above, set out differently:
row	Sequence	median seed-adjusted z-score
2	GCAUCUUGGUGAAACGUGATT against EIF4A3	inactive: 0.126
17	GUCUGUUCGUGGGCCGAAATT against STUB1	inactive: 0.202

# Going on with the list:

row,Sequence,median seed-adjusted z-score
1,CAUUGGUGGUAUGACAAGATT against SPINLW1,inactive: 0.00582
2,GCACAAGCAUUGGAAAUAATT against MAP4,active: 1.67
3,GUACAGUCACAAGGACAUATT against FASTK,inactive: 0.306
4,GCACCUACCUAGGCUUGGATT against FUK,inactive: -0.0381
5,CAGCUCAACUCAAACGGUUTT against PCDHGA4,inactive: 0.0698
6,CAUGGACGAGAUCAAGGAATT against AGXT,inactive: 0.017
7,GCAGUAACGAGGAACUGAATT against GALNTL4,inactive: 0
8,CAACAAUAGGCAAAAAGAUTT against SELE,inactive: 0.469
9,GUCUAAUGAGAACUCCAGATT against IRF7,inactive: -0.304
10,CACUCAUCGAUGUACAUUUTT against TNNT1,inactive: 0
11,GCACGUAAGCUGAACACUATT against PRC1,inactive: -0.0195
12,CGCUGGACUUCGUCAAGAATT against KCNC4,inactive: -0.433
13,GCACCACUCAAGACCAAAUTT against ARX,inactive: 0.756
14,GAGCAGACAUUGGAAUGGATT against MTHFD1,inactive: 0.554
15,AACUCAACAUGUACGGUUUTT against HSF4,inactive: 0.926
16,GCAACGUGGACAUUGGUGATT against SOX10,inactive: -0.255
17,GACAGAAGUUUUGAGUGAATT against RICH2,inactive: 0.4
18,GGAGUUCACUACUGGAUUUTT against EFCAB4B,inactive: 0
19,CGACUUCAUAAUUACGCAATT against ALS2,inactive: 0
